The supplement of paper PMC10849652
The list shows a part of the results.

Sequences of proteins named here, by UniProt entry; tags and fusion partners are left off. A change or cut given only in a name is not applied to a line headed by its entry.
UniProt Q9Y2H6: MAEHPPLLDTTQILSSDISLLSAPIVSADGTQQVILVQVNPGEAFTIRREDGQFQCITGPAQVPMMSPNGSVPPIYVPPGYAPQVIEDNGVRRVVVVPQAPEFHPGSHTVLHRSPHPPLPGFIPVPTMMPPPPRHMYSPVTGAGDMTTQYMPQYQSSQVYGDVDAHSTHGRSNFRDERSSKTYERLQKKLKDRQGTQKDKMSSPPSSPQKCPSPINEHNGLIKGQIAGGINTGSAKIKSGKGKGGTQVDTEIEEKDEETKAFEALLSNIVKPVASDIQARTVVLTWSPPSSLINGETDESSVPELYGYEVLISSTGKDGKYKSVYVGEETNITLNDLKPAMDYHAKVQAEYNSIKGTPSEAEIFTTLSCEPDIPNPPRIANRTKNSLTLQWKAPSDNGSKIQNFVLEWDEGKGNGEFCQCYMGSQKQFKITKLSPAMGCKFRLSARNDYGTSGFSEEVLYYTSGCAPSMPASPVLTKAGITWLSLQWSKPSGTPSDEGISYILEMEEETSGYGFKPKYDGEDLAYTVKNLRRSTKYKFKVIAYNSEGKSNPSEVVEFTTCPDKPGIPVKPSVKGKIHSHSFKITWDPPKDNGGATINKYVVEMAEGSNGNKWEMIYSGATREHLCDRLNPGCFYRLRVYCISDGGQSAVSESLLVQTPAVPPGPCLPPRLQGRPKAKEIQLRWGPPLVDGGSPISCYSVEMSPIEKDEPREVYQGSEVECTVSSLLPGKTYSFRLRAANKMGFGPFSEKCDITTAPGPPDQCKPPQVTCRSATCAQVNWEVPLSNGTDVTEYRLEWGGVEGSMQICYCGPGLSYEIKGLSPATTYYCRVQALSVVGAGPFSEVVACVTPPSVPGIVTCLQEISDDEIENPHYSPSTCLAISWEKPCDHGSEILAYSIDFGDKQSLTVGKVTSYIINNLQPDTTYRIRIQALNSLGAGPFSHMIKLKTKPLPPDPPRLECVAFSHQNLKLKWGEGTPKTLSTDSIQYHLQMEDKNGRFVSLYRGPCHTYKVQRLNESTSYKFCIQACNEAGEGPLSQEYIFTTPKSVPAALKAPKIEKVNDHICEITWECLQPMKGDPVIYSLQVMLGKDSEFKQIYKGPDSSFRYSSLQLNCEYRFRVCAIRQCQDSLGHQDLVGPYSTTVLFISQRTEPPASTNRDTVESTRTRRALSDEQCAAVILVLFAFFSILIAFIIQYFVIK
UniProt Q96GI7: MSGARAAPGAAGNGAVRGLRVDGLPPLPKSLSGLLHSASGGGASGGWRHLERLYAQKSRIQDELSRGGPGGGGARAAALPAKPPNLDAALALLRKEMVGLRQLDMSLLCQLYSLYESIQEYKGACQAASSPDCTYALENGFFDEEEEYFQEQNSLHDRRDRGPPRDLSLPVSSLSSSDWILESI
UniProt Q9Y3D6: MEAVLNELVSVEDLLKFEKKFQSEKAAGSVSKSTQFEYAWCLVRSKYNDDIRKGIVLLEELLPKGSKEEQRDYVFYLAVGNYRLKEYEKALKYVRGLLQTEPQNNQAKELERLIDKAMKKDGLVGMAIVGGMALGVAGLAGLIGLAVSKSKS
UniProt Q6PIJ6: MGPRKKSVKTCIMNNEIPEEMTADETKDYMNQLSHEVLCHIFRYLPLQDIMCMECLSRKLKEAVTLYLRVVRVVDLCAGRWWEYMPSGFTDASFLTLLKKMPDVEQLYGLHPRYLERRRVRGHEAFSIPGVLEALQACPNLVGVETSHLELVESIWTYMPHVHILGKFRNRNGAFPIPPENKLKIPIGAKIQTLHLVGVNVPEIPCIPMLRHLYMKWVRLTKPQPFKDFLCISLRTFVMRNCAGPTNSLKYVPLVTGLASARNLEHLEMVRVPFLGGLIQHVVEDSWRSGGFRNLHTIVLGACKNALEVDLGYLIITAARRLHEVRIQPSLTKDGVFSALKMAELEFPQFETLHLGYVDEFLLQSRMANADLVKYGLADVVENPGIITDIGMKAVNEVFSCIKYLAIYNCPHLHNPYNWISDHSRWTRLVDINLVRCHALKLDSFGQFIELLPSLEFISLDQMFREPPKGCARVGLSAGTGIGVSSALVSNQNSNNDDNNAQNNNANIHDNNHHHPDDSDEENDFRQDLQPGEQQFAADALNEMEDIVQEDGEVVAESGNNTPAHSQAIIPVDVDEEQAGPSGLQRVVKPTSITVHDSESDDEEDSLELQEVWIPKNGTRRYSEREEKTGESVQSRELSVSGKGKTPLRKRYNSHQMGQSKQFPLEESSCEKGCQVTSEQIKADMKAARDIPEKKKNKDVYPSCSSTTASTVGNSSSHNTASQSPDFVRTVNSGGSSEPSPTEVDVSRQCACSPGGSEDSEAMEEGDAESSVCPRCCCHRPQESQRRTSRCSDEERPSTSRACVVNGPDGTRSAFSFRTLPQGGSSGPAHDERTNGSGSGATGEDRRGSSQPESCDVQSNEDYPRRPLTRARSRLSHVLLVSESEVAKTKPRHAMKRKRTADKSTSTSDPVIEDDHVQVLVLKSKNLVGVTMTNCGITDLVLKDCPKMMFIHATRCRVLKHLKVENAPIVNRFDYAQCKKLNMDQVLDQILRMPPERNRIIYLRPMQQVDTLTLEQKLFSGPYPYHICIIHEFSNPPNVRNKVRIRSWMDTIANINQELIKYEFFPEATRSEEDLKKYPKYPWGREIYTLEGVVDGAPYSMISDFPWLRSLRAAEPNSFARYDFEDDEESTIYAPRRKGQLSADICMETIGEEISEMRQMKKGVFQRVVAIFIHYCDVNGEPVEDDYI
UniProt Q9BXW9: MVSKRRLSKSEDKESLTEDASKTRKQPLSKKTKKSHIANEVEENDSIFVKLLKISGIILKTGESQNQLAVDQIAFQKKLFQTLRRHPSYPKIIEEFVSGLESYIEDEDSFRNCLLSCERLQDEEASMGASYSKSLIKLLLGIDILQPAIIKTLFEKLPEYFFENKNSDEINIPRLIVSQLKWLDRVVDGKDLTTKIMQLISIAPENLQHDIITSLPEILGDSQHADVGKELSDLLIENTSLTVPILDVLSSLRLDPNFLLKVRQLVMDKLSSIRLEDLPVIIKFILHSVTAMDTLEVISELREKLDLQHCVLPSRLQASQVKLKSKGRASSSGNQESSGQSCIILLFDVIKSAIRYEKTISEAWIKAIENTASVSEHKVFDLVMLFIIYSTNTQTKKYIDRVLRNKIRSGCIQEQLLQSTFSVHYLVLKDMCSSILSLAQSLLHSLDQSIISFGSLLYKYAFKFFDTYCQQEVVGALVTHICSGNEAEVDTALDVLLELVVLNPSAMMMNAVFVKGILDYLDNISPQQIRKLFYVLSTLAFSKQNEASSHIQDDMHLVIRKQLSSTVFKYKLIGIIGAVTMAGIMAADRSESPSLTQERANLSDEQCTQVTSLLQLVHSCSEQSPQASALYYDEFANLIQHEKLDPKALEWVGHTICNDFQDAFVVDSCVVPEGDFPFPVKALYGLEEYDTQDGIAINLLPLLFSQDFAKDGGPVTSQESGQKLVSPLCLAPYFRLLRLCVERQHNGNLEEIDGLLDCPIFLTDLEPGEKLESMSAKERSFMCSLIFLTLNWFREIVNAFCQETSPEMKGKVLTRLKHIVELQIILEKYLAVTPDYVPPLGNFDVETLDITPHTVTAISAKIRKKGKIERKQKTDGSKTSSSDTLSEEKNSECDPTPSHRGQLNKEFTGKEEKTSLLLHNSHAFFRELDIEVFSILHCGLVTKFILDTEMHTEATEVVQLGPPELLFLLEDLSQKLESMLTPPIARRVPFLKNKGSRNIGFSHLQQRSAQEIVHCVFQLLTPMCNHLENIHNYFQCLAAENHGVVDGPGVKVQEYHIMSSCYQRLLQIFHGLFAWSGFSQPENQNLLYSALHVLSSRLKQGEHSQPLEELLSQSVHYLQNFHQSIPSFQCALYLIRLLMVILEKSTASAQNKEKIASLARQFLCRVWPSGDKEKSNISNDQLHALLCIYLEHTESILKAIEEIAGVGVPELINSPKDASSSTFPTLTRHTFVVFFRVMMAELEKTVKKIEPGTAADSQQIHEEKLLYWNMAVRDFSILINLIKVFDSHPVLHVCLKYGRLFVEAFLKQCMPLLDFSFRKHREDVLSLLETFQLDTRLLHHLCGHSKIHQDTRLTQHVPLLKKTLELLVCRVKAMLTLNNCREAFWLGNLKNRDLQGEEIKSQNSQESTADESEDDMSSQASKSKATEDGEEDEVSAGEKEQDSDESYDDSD
UniProt P98173: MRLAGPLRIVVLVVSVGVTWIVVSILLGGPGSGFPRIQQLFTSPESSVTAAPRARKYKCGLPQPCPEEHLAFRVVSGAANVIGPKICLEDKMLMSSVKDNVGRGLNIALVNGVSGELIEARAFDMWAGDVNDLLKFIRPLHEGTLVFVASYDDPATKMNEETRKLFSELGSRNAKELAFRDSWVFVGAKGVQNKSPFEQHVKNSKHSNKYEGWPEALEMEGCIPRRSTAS
UniProt Q96SL8: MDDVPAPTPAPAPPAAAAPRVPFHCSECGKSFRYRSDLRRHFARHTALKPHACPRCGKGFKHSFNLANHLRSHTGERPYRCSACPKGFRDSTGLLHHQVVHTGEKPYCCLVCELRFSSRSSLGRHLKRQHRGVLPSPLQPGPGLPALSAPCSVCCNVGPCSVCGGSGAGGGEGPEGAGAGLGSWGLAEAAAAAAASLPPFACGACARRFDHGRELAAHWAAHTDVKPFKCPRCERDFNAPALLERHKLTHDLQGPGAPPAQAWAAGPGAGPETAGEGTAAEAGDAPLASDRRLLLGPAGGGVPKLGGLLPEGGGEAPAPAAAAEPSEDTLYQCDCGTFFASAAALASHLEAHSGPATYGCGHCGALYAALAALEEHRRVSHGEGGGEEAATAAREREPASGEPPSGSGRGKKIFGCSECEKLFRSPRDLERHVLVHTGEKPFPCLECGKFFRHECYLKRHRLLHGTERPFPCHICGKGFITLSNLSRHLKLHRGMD
UniProt Q9UK97: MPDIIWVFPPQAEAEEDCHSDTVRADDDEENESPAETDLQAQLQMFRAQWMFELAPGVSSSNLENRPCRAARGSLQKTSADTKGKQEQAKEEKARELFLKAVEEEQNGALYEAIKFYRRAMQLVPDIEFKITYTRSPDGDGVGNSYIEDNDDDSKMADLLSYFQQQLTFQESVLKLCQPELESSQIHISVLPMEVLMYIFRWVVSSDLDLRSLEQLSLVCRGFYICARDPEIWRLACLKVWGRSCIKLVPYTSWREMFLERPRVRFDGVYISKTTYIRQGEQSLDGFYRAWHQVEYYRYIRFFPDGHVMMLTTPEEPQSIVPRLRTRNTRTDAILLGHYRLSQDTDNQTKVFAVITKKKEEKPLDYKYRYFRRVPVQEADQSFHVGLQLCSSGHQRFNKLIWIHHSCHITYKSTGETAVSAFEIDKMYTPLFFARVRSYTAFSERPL
UniProt Q96HJ9: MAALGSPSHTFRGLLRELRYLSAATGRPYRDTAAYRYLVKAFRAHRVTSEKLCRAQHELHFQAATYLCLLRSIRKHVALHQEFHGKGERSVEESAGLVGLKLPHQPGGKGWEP
UniProt Q8N8J7: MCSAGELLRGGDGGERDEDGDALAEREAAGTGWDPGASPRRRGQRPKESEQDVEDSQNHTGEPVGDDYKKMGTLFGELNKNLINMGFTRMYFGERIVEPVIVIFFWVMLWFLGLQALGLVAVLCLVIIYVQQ
UniProt Q8TAV0: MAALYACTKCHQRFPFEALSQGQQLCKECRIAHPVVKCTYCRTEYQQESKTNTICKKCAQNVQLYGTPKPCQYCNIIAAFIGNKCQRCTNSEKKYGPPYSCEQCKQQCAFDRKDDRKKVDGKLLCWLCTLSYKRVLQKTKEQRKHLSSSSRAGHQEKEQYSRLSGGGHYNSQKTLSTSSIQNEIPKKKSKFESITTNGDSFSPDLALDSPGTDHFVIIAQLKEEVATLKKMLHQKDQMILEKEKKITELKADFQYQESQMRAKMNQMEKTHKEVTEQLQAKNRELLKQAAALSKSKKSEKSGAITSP
UniProt Q9NRD1: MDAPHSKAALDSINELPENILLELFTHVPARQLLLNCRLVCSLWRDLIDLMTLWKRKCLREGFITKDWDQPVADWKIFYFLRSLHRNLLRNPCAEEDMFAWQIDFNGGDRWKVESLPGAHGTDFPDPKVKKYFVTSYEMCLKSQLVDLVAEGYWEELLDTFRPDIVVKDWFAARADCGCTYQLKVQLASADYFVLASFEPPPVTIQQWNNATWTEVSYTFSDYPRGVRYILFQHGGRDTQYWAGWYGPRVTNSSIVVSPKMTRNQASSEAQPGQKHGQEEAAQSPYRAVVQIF
UniProt P39748, whole entry, looked up: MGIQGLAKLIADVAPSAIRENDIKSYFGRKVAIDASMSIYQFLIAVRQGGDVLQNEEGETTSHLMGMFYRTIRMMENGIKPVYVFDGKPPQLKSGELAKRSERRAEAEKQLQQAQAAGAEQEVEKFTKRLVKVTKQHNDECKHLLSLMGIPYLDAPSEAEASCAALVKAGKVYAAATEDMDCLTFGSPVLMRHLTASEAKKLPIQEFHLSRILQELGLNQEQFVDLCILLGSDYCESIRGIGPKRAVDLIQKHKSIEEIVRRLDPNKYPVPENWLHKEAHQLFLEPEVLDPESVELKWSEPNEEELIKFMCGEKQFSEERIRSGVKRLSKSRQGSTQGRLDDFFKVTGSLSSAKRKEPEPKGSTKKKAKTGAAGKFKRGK

These targets were tested with COC(=O)N[C@@H](C)CNc1nccc(-c2cn(C(C)C)nc2-c2cc(Cl)cc(NS(C)(=O)=O)c2F)n1 [encorafenib] (assay: log2 fold change, soluble protein after heating vs DMSO (PISA); higher = thermal stabilisation; K562 cells, 10 uM, 30 min; active = over 0.2 and 3.5 SD of the protein, either way, in both replicates (recomputed)).
In short: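 Soluble protein was defined as the supernatant after 21,000xg for 90 min. It came from K562 cells at 2×10^6 cells/mL given 10 μM compound for 30 min, heated in aliquots for 3 min across 48°C-58°C, pooled, and extracted in PBS with 0.5% NP-40 at 4°C, and was quantified by TMTpro 16plex LC-MS/MS with equalised channel sums. Thermal stability against control samples, from duplicates, is reported as log2 fold change.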

log2 fold change, inactive:
FGB (UniProt P02675) -0.293
FNDC3A (UniProt Q9Y2H6) 0.059
FKBP4 (UniProt Q02790) 0.026
FBXO42 (UniProt Q6P3S6) 0.03
FASTKD1 (UniProt Q53R41) 0.026
FAM89A (UniProt Q96GI7) 0.141
FAM53C (UniProt Q9NYF3) -0.033
FLT1 (UniProt P17948) -0.001
FCHO1 (UniProt O14526) 0.101
FIS1 (UniProt Q9Y3D6) -0.049
FDFT1 (UniProt P37268) -0.032
FBXO38 (UniProt Q6PIJ6) 0.091
FECH isoform 2 (UniProt P22830) -0.033
FAM53B (UniProt Q14153) -0.103
FANCD2 isoform 1 (UniProt Q9BXW9) 0.009
FAM3A (UniProt P98173) 0.118
FER (UniProt P16591) 0.096
FBXL8 (UniProt Q96CD0) 0.062
FIZ1 (UniProt Q96SL8) 0.069
FIBP (UniProt O43427) 0.039
FCHSD1 (UniProt Q86WN1) 0.074
FANCA (UniProt O15360) -0.04
FCF1 (UniProt Q9Y324) 0.121
FBXO9 (UniProt Q9UK97) 0.152
FMC1 (UniProt Q96HJ9) -0.105
FAM241A (UniProt Q8N8J7) -0.009
FHOD1 (UniProt Q9Y613) 0.187
FMR1 (UniProt Q06787) 0.04
FNTA (UniProt P49354) -0.239
FAM76A isoform 3 (UniProt Q8TAV0) -0.019
FAM222B (UniProt Q8WU58) -0.08
FDPS (UniProt P14324) 0.137
FBXO6 (UniProt Q9NRD1) 0.033
FAT2 (UniProt Q9NYQ8) 0.094
FANCI (UniProt Q9NVI1) 0.003
FEN1 (UniProt P39748) 0.054
FAM210B (UniProt Q96KR6) -0.067
FITM2 (UniProt Q8N6M3) 0.009
FAT4 (UniProt Q6V0I7) -0.04

3 records picked at random from the list so far:
log2 fold change, inactive:
FAM76A isoform 3 (UniProt Q8TAV0) -0.019
FAM53C (UniProt Q9NYF3) -0.033
FBXO38 (UniProt Q6PIJ6) 0.091
